Reference: patent US20160130327A1
Changes are numbered by the printed parent chain. Results are given in words; binding and its absence hold for the method and conditions named. Some results given as binding are weak or reduced against the parent protein; the word gives no strength.

Amino acid sequences for entries named in this document (tags omitted). Residues count along the entry.
UniProt P12824, residues 24-743: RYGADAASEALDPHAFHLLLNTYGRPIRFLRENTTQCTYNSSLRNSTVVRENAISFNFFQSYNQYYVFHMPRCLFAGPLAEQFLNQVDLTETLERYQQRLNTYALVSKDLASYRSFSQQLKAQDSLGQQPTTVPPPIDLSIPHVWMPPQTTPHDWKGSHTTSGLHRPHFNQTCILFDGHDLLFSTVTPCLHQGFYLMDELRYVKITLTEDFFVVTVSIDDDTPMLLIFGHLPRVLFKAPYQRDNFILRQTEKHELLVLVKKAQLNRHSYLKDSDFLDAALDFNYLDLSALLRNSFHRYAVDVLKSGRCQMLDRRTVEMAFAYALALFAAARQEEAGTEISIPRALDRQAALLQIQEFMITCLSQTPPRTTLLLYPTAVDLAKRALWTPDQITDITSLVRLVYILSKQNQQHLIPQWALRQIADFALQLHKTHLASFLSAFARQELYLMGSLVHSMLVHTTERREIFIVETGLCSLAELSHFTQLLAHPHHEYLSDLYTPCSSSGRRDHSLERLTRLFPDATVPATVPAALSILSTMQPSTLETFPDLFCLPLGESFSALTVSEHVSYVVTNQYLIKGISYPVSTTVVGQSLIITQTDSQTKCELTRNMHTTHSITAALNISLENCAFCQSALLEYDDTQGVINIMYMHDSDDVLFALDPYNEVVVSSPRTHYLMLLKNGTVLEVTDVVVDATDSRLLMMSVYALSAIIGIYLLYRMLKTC

B1: 347.3 (antibody, V domains shown)
VH: QSLEESEGRLVTPGTPLTLTCTVSGIDLSTYAMNWVRQAPGKGLEWIGIIGSSGGAYYASWAKGRCTISKTSTTVDLKITSPTTEDTATYFCAVSLYTYDDYADYFLWGPGTLVTISS
VL: ELVLTQSPSLSASLGTTARLTCTLSTGYSVGKYPLVWLQQVPGRPPRYLLTYHTEEFKHQGSGVHSRFSGSKDTSENSFVLRIFGLQPEDEADYYCVTAHPTESSLHYVFGGGTQLTVT
B2: 212.6 (antibody, V domains shown)
VH: QSLEESGGRLVTPGTPLTLTCTVSGFSLSSYAMSWVRQAPGKGLEWIGIIGSSGNTYYASWAKGRFTISKTSTTVDLKITSPTTEDTATYFCARGGYSYDDYTPFDLWGPGTLVTVSS
VL: B1 VL with S78A, F79G, R82S, F84S, V97A, P101A
B3: 58.5 (antibody, V domains shown)
VH: QSLEESGGRLVTPGGSLTLTCTVSGFSLSAYSVSWVRQAPGKGLEWIGIIGHSGNTYYASWAKGRFTISKTSTTVDLKITSLTTEDTATYFCAREDYRYGDYGYYWDFNFWGPGTLVTISS
VL: ELDLTQTASPVSAPVGGTVTINCQASQNIYSNLAWYQQKPGQPPKLLIYGASTLASGVSSRFKGSRSGTEFTLTISDLECADAATYYCQSYVYSSSTADTFGGGTEVVVK
B4: 223.4 (antibody, V domains shown)
VH: B3 VH with G15T, S16P, S60N, T84I
VL: ELVMTQTPSPVSAPVGGTVTISCQASRSVYNENYVAWFQHRPGQPPKLLIYTTSILASGVPSRFKGRGSGTQFTLTISDVQCDDAATYYCAGDYDDNEENAFGGGTELEIL

molecular target: gH (UL75) (human cytomegalovirus (CMV)) (UniProt P12824); experiment: Western blot of denatured CMV virions

Binder | binding
B1 | binds
B2 | binds
B3 | binds
B4 | binds
